This note sets out measurements from article PMC5626551.

Amino acid sequences for entries named in this document (tags omitted).
UniProt P92177: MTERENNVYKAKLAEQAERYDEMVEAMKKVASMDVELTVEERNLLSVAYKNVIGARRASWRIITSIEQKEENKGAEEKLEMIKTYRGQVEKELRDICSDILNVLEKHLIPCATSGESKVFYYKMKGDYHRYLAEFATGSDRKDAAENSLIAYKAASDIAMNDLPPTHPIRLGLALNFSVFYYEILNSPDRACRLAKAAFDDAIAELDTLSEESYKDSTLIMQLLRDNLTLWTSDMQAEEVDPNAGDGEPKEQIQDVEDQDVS

Numbering of substitutions follows the chain as printed. In names and notes the source's numbering stands. Results are given in words; binding and its absence hold for the method and conditions named. In cells and extracts the contact can be indirect. Some results given as binding are weak or reduced against the parent protein; the word gives no strength. For some assays here: Where a sequence is shown, tags or fusion partners need not be part of it.

The target in experiment [1] is GST–14-3-3ε (Drosophila melanogaster) (UniProt P92177). Put plainly: pull-down; glutathione-Sepharose beads preloaded with saturating GST–14-3-3ε or GST, 2 h at 4°C with ovary extract in lysis buffer (25 mM Tris pH 7.6, 50 mM NaCl, 0.5% Triton X-100, phosphatase inhibitors); Western blot with anti-Ncd; only the target purified.
Experiment [2] shares this target. Briefly: pull-down; glutathione-Sepharose beads preloaded with GST–14-3-3ε, 2 h at 4°C with lysates of S2 cells expressing versions of Ncd-GFP and depleted of endogenous Ncd by RNAi; Western blot with anti-GFP; only the target purified. In general terms: Immunoblotting shows a protein as a band on a membrane.

B1: endogenous Ncd protein (protein, UniProt P20480 1-700)
chain: MESRLPKPSGLKKPQMPIKTVLPTDRIRAGLGGGAAGAGAFNVNANQTYCGNLLPPLSRDLNNLPQVLERRGGGARAASPEPMKLGHRAKLRRSRSACDINELRGNKRTAAAPSLPSIPSKVSRLGGALTVSSQRLVRPAAPSSITATAVKRPPVTRPAPRAAGGAAAKKPAGTGAAASSGAAAAAPKRIAPYDFKARFHDLLEKHKVLKTKYEKQTEDMGELESMPQQLEETQNKLIETESSLKNTQSDNECLQRQVKQHTAKIETITSTLGRTKEELSELQAIHEKVKTEHAALSTEVVHLRQRTEELLRCNEQQAAELETCKEQLFQSNMERKELHNTVMDLRGNIRVFCRIRPPLESEENRMCCTWTYHDESTVELQSIDAQAKSKMGQQIFSFDQVFHPLSSQSDIFEMVSPLIQSALDGYNICIFAYGQTGSGKTYTMDGVPESVGVIPRTVDLLFDSIRGYRNLGWEYEIKATFLEIYNEVLYDLLSNEQKDMEIRMAKNNKNDIYVSNITEETVLDPNHLRHLMHTAKMNRATASTAGNERSSRSHAVTKLELIGRHAEKQEISVGSINLVDLAGSESPKTSTRMTETKNINRSLSELTNVILALLQKQDHIPYRNSKLTHLLMPSLGGNSKTLMFINVSPFQDCFQESVKSLRFAASVNSCKMTKAKRNRYLNNSVANSSTQSNNSGSFDK
For B1, the binding result in experiment [1] is on record as “binds”.

B2: Ncd-3×A-GFP (protein, UniProt P20480 1-700)
chain: B1 chain with S79A, S96A, S114A
On to B2, for which the binding result in experiment [2] is “binds weakly”.

B3: Ncd(S96A)-GFP (protein, UniProt P20480 1-700)
chain: B1 chain with S96A
As to B3, the binding entry in experiment [2] is on record as “binds weakly”.

B4: Ncd(S94A)-GFP (protein, UniProt P20480 1-700)
chain: B1 chain with S94A
As for B4, the binding entry in experiment [2] is “binds”.

B5: Ncd-GFP (WT) (protein, UniProt P20480 1-700)
chain: B1 chain
Regarding B5, in experiment [2], the binding result is reported as “binds”.
